Data as given in PubChem BioAssay AID493246 (Drosophila RNAi Screening Center, 2011)
Screen: 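Identify essential fly genes by loss of cell viability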 (primary screen). Cell system: Drosophila Kc and S2R+ cells. Knock-down reagent: long dsRNA against Drosophila genes. Read-out: 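Raw, unnormalised count of remaining cells in each well; per-plate z-scores of cell number underlie the calls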. Scale: Kc cell number and S2R+ cell number: higher = more cells remaining. Call rule: 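Counted as a hit if cell number falls by a z-score of at least 3 within its plate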.
The screen tested about 21,000 reagents; this is an unselected part of those that have a named target and a result. In the full data, 429 (2%) were called active. 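Values are raw and not normalised between plates; calls rest on per-plate z-scores that were not deposited.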 The record does not give: the amount of reagent, the time to read-out.

gene knocked down,dsRNA,"Kc cell number, rep 1","Kc cell number, rep 2","S2R+ cell number, rep 1","S2R+ cell number, rep 2",outcome
CG1888 (GeneID 35979),DRSC06797,1.60e6,1.62e6,1.33e6,1.38e6,inactive
CG14687 (GeneID 41297),DRSC14910,1.45e6,1.58e6,1.33e6,1.46e6,inactive
CG12239 (GeneID 31509),DRSC17832,4.45e5,,7.97e5,,inactive
CG8249 (GeneID 36742),DRSC07125,1.56e6,1.60e6,1.17e6,1.28e6,inactive
Tsp39D (GeneID 35405),DRSC03099,1.61e6,1.64e6,1.36e6,4.39e5,inactive
AP-1mu (GeneID 41150),DRSC14089,1.55e6,1.58e6,1.40e6,1.42e6,inactive
CG14262 (GeneID 43286),DRSC14757,1.50e6,1.56e6,1.06e6,1.18e6,inactive
CG16837 (GeneID 37904),DRSC04283,1.46e6,1.58e6,1.40e6,1.40e6,inactive
lin (GeneID 45325),DRSC07644,1.72e6,1.71e6,1.40e6,1.51e6,inactive
Polr3H (GeneID 39310),DRSC10817,1.52e6,1.61e6,1.28e6,1.43e6,inactive
CG9757 (GeneID 41662),DRSC16557,1.19e6,1.22e6,1.20e6,1.36e6,inactive
Gpdh3 (GeneID 42624),DRSC13561,1.38e6,1.42e6,1.05e6,1.10e6,inactive
Gpdh3 (GeneID 42624),DRSC15325,1.22e6,1.25e6,1.10e6,1.20e6,inactive
Wnt4 (GeneID 34007),DRSC00976,1.33e6,1.44e6,6.92e5,8.17e5,active
Wnt4 (GeneID 34007),DRSC03477,1.54e6,1.48e6,1.23e6,1.40e6,inactive
mol (GeneID 34872),DRSC01431,1.40e6,1.46e6,7.99e5,9.63e5,inactive
mol (GeneID 34872),DRSC01912,1.48e6,1.49e6,1.22e6,1.32e6,inactive
mol (GeneID 34872),DRSC02479,1.54e6,1.61e6,1.22e6,1.30e6,inactive
Der-1 (GeneID 33369),DRSC00301,1.38e6,1.37e6,1.05e6,1.03e6,inactive
yip2 (GeneID 34313),DRSC03640,1.63e6,1.60e6,1.28e6,1.45e6,inactive
Pop5 (GeneID 39915),DRSC10074,1.69e6,1.77e6,1.31e6,1.33e6,inactive
Spn28B (GeneID 34035),DRSC02982,1.52e6,1.59e6,1.05e6,1.15e6,inactive
CG14431 (GeneID 31639),DRSC17925,1.48e6,1.47e6,9.94e5,1.08e6,inactive
Sr-CIV (GeneID 33576),DRSC00575,1.54e6,1.46e6,1.13e6,1.26e6,inactive
dmGlut (GeneID 47253),DRSC02835,1.02e6,1.06e6,1.01e6,1.06e6,inactive
Or45a (GeneID 35958),DRSC07487,1.50e6,1.57e6,1.23e6,1.37e6,inactive
pkm (GeneID 32108),DRSC19674,5.68e5,,7.73e5,,inactive
Eglp2 (GeneID 37737),DRSC04294,1.33e6,1.46e6,1.09e6,1.04e6,inactive
CG31388 (GeneID 41355),DRSC15254,1.49e6,1.54e6,1.19e6,1.25e6,inactive
Alas (GeneID 37815),DRSC04044,1.30e6,1.39e6,1.06e6,1.12e6,inactive
CG32808 (GeneID 318221),DRSC17689,1.35e6,1.49e6,1.07e6,1.08e6,inactive
Sema5c (GeneID 37066),DRSC11279,1.29e6,1.24e6,1.22e6,1.32e6,inactive
Dhod (GeneID 41022),DRSC16647,1.47e6,1.59e6,1.34e6,1.31e6,inactive
Sbf (GeneID 41427),DRSC16852,1.43e6,1.48e6,1.18e6,1.22e6,inactive
LeuRS (GeneID 326262),DRSC00581,1.65e6,1.70e6,1.17e6,1.39e6,inactive
DNaseII (GeneID 48228),DRSC16310,1.50e6,1.53e6,1.22e6,1.27e6,inactive
Acsf2 (GeneID 33766),DRSC02172,1.76e6,1.85e6,1.31e6,1.45e6,inactive
CG9447 (GeneID 35597),DRSC05008,1.57e6,1.68e6,1.31e6,1.48e6,inactive
Ufsp2 (GeneID 39687),DRSC10231,1.47e6,1.49e6,1.34e6,1.33e6,inactive
PGRP-SB1 (GeneID 39870),DRSC11090,1.43e6,1.51e6,1.27e6,1.34e6,inactive
Lrch (GeneID 35041),DRSC02996,1.29e6,1.45e6,1.27e6,1.18e6,inactive
Pgant5 (GeneID 326151),DRSC03149,1.28e6,1.32e6,5.34e5,5.96e5,inactive
CG1662 (GeneID 32296),DRSC19754,6.47e5,,9.02e5,,inactive
shtd (GeneID 32473),DRSC20166,5.59e5,,8.26e5,,inactive
shn (GeneID 36171),DRSC05266,1.42e6,1.41e6,9.94e5,1.15e6,inactive
shn (GeneID 36171),DRSC07681,1.31e6,1.43e6,9.36e5,9.93e5,inactive
Gyc88E (GeneID 41825),DRSC15547,1.25e6,1.33e6,1.10e6,1.27e6,inactive
GstD4 (GeneID 48337),DRSC16685,1.45e6,1.42e6,1.26e6,1.43e6,inactive
Gr89a (GeneID 42007),DRSC15023,1.38e6,1.36e6,9.66e5,1.12e6,inactive
CG31269 (GeneID 318653),DRSC15744,1.38e6,1.35e6,1.12e6,1.29e6,inactive
Brd8 (GeneID 43460),DRSC14866,4.68e5,,7.91e5,,inactive
l(1)G0196 (GeneID 33137),DRSC20591,1.34e6,1.46e6,1.09e6,1.11e6,inactive
l(1)G0196 (GeneID 33137),DRSC20628,1.47e6,1.49e6,1.06e6,1.17e6,inactive
l(1)G0196 (GeneID 33137),DRSC20629,1.70e6,1.73e6,1.09e6,1.29e6,inactive
CG43394 (GeneID 318843),DRSC01013,1.53e6,1.54e6,9.59e5,1.12e6,inactive
CG3687 (GeneID 36803),DRSC06850,1.54e6,1.55e6,1.12e6,1.22e6,inactive
Cyp6a18 (GeneID 43304),DRSC16632,1.70e6,1.82e6,1.10e6,1.22e6,inactive
cutlet (GeneID 44637),DRSC00284,1.75e6,1.80e6,1.25e6,1.43e6,inactive
CG5149 (GeneID 34013),DRSC02819,1.34e6,1.39e6,5.43e5,7.64e5,inactive
SIDL (GeneID 41833),DRSC16077,1.50e6,1.55e6,1.26e6,1.36e6,inactive
CG4022 (GeneID 39082),DRSC10395,1.47e6,1.53e6,1.15e6,1.30e6,inactive
CG12237 (GeneID 32967),DRSC19449,1.54e6,1.61e6,1.03e6,1.19e6,inactive
mts (GeneID 45959),DRSC03574,1.08e6,1.23e6,4.12e5,4.64e5,inactive
CG34200 (GeneID 5740389),DRSC04804,1.43e6,1.53e6,9.77e5,1.01e6,inactive
siz (GeneID 40327),DRSC11622,1.49e6,1.70e6,1.32e6,1.28e6,inactive
siz (GeneID 40327),DRSC11689,1.50e6,2.02e6,1.25e6,1.32e6,inactive
siz (GeneID 40327),DRSC11690,1.72e6,1.66e6,1.48e6,1.56e6,inactive
smo (GeneID 33196),DRSC00837,1.35e6,1.40e6,9.76e5,8.99e5,inactive
AstA (GeneID 42947),DRSC14634,1.51e6,1.74e6,1.08e6,1.14e6,inactive
Wnk (GeneID 40391),DRSC11813,1.40e6,1.42e6,7.61e5,9.12e5,active
cid (GeneID 36495),DRSC05429,1.49e6,1.47e6,9.83e5,1.15e6,inactive
cid (GeneID 36495),DRSC07592,1.59e6,1.62e6,1.33e6,1.42e6,inactive
ppk12 (GeneID 37566),DRSC04086,1.62e6,1.67e6,1.34e6,1.45e6,inactive
FucTB (GeneID 34260),DRSC02745,1.48e6,1.52e6,1.13e6,1.31e6,inactive
Sse (GeneID 38640),DRSC09746,1.36e6,1.46e6,8.19e5,7.06e5,inactive

Not a retest: 9 of the entries above.
gene knocked down,dsRNA,"Kc cell number, rep 1","Kc cell number, rep 2","S2R+ cell number, rep 1","S2R+ cell number, rep 2",outcome
Sbf (GeneID 41427),DRSC16852,1.43e6,1.48e6,1.18e6,1.22e6,inactive
LeuRS (GeneID 326262),DRSC00581,1.65e6,1.70e6,1.17e6,1.39e6,inactive
DNaseII (GeneID 48228),DRSC16310,1.50e6,1.53e6,1.22e6,1.27e6,inactive
Acsf2 (GeneID 33766),DRSC02172,1.76e6,1.85e6,1.31e6,1.45e6,inactive
CG9447 (GeneID 35597),DRSC05008,1.57e6,1.68e6,1.31e6,1.48e6,inactive
Ufsp2 (GeneID 39687),DRSC10231,1.47e6,1.49e6,1.34e6,1.33e6,inactive
PGRP-SB1 (GeneID 39870),DRSC11090,1.43e6,1.51e6,1.27e6,1.34e6,inactive
Lrch (GeneID 35041),DRSC02996,1.29e6,1.45e6,1.27e6,1.18e6,inactive
Pgant5 (GeneID 326151),DRSC03149,1.28e6,1.32e6,5.34e5,5.96e5,inactive
